This passage reports binding results from publication PMC10799427.

Sequences of proteins named here, by UniProt entry; tags and fusion partners are left off. A change or cut given only in a name is not applied to a line headed by its entry.
UniProt Q9NPD8: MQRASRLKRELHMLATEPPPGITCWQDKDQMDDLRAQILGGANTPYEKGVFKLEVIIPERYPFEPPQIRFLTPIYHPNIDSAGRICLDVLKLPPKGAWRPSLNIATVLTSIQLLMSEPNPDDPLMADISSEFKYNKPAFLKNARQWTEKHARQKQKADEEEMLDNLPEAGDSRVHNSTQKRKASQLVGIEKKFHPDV

No constants are given. Whether binding was seen depends on the method and setting. In cells and extracts the contact can be indirect. Some binding calls cover weakened binding; strength is not graded here.

The target in experiment [1] is G3BP1 (human (endogenous in SKOV3/DDP and A2780/DDP)) (UniProt Q13283). Put plainly: co-IP; co-immunoprecipitation in SKOV3/DDP and A2780/DDP cells; which protein was precipitated is not told; no methods given.
Experiment [2] concerns the target Ub-conjugating enzyme E2T (UBE2T) (human (endogenous in SKOV3/DDP and A2780/DDP)) (UniProt Q9NPD8). Described as above.

With p53 protein (from UniProt P04637 1-393), the binding result in experiment [1] and in experiment [2] was “binds” throughout.
